For at least one compound, name, drawing or mass did not settle the structure.
Tested on: APBD mice
Test: Survival, locomotive and reflex parameters in APBD mice
Format: in vivo

## COCCN(Cc1sccc1C)C(=O)c1cc(C)[nH]c(=O)c1 [Compound GHF-201]
  therapeutic effect of the administered dose: significant therapeutic effect

Source: patent publication US20260069534A1, “ORAL DELIVERY OF ACTIVE COMPOUNDS FOR TREATING GLYCOGEN STORAGE DISEASES” (LYOTROPIC DELIVERY SYSTEMS LTD., priority 2022, published 2026)
